We go through one sequence from publication PMC6104169.

The subject of data set [1] is STAT1 + STAT2 + IRF9. As to the kind of experiment: EMSA supershift. The conditions noted are these: IFN-alpha2 60 min, supershifted by anti-STAT1 or anti-IRF9; 200 fmol probe, 1x LightShift binding buffer, 1 ug poly(dI:dC), 0.05% NP-40, 2.5% glycerol, 5 mM MgCl2, 20 min; extracts in 20 mM Hepes pH 7.9, 100 mM KCl, 0.5 mM EDTA; protein in a lysate after overexpression; label: 5' biotin. Background: In EMSA bound probe runs differently from free probe, usually more slowly.

For data set [2], the system named is STAT1 + STAT2 + IRF9. As to the kind of experiment: EMSA. The following applies: 200 fmol probe, 1x LightShift binding buffer, 1 ug poly(dI:dC), 0.05% NP-40, 2.5% glycerol, 5 mM MgCl2, 20 min, extracts in 20 mM Hepes pH 7.9, 100 mM KCl, 0.5 mM EDTA, protein in a lysate after overexpression, label: 5' biotin.

The exact form of at least one protein or probe is not confirmed. Results from cells or extracts need not show a direct contact. For some of these results: Weaker means in comparison with the reference protein, sequence or condition of that experiment.

For “CTCGGGAAAGGGAAACCGAAACTGAAGCC (double strand) [ISG15 ISRE probe]”, the binding result is given as “binds” in data set [1]; “binds more weakly” in data set [2] (plus nuclear lysate with myc-PLSCR2 CA mutant (4 Cys to Ala in palmitoylation motif), attenuated less than with WT); “binds more weakly” in data set [2] (plus nuclear lysate with myc-PLSCR2 WT (mouse 1-307)); “binds more weakly” in data set [2] (plus nuclear lysates with HA-STAT3 and myc-PLSCR2 WT, suppression augmented).
